For some assays here: For at least one compound, name, drawing or mass did not settle the structure. Some of these results come from one statement about several compounds together.
Tests used:
hepatic stellate cells = assay: Proliferation of cultured hepatic stellate cells (nuclear expression of PCNA, S-phase); format: cell-based, Sprague-Dawley rats; details: controls approximately 5%; ascorbic acid 200 μM/FeSO4 50 μM; TGFα 12 nM
chronic hepatitis B or C = details: in vivo; cited from earlier work

Compound | percentage of cells in S-phase (PCNA positive) (hepatic stellate cells) [%] | effectiveness (chronic hepatitis B or C)
TGFα: growth factor used to induce stellate cell activation | > 66 | –
C[C@H](CCC(=O)O)[C@H]1CC[C@H]2[C@@H]3[C@@H](O)C[C@@H]4C[C@H](O)CC[C@]4(C)[C@H]3CC[C@]12C [ursodeoxycholic acid] | – | neither has been shown to be very effective

— patent publication US6420428B1, “Treatment and prevention of hepatic disorders” (The Regents of the University of California, priority 1996, dated 2002)
